PubChem BioAssay AID743454 | Peter MacCallum Cancer Centre, 2014
Here is a random part of about 18,000 reagents. 450 of all reagents (2.5%) were called active. 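Single biological run; no consistent viability z cut-off exists, so the class columns, not z-scores, define the calls.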 Unmarked entries are inactive.

- Assay: 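Knock-downs lowering viability or raising caspase 3/7 activity in vorinostat-treated resistant cells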 (primary screen)
- Cell system: human HCT116-VR colon cancer cells, selected for vorinostat resistance
- Reagent: siRNA pool against human genes, 40 nM siRNA pool
- Timing: vorinostat for 24 h, read-out about 72 h after transfection
- Challenge: vorinostat at 2.5 µM final
- Read-out: 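Cell viability by CellTiter-Fluor and caspase 3/7 activity by luminescence, each scaled to mock wells per plate, duplicates averaged, then robust z-scored over all plates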
- Scale: viability robust z-score: higher = more viable cells than screen typical; caspase robust z-score: higher = more caspase 3/7 activity than screen typical
- Call rule: 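Hits are knock-downs in viability class RV1/RV2 or caspase class CA1/CA2, excluding ones that killed cells in the no-drug cell-count arm; hits then retested with single siRNAs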

| gene knocked down | PubChem SID | viability hit class | caspase hit class | viability robust z-score | caspase robust z-score |
| --- | --- | --- | --- | --- | --- |
| E2F3 (GeneID 1871) | SID56478618 | no change | no change | 0.16 | 0.91 |
| TSGA13 (GeneID 114960) | SID135623469 | no change | no change | 1.18 | -0.6 |
| ALKBH2 (GeneID 121642) | SID152147525 | no change | no change | -0.83 | -0.4 |
| VAPB (GeneID 9217) | SID134321706 | no change | no change | -0.4 | 0.78 |
| AFP (GeneID 174) | SID134315559 | no change | no change | 1.3 | 1.3 |
| LAP3 (GeneID 51056) | SID135621107 | no change | no change | 0.57 | -0.96 |
| TM9SF4 (GeneID 9777) | SID134324414 | no change | no change | -0.8 | -0.32 |
| CDX4 (GeneID 1046) | SID134314771 | no change | no change | 1.58 | -0.18 |
| CCT2 (GeneID 10576) | SID152151325 | no change | no change | -0.52 | 1.1 |
| CNOT9 (GeneID 9125) | SID134323725 | no change | no change | -0.18 | -0.36 |
| TIPE2 (GeneID 79626) | SID135622726 | no change | no change | 0.43 | -0.6 |
| CD302 (GeneID 9936) | SID134322741 | no change | no change | -1.73 | -1.43 |
| OR2T29 (GeneID 343563) | SID152152553 | no change | no change | 1.38 | 0.04 |
| LOC652436 (retired record) (GeneID 652436) | SID152155556 | no change | no change | 0.12 | -0.18 |
| RAB3A (GeneID 5864) | SID134314394 | no change | no change | 0.22 | -0.26 |
| NBPF11 (GeneID 200030) | SID135623732 | no change | no change | 0.14 | -0.16 |
| CCRL2 (GeneID 9034) | SID135620994 | no change | no change | 1.16 | -1.19 |
| TAS2R60 (GeneID 338398) | SID135623492 | no change | no change | 1.85 | 0.08 |
| CFAP20DC (GeneID 200844) | SID152154673 | no change | no change | 1.46 | -0.45 |
| CMTM2 (GeneID 146225) | SID134315245 | no change | no change | 0.22 | -0.54 |
| GLYATL2 (GeneID 219970) | SID135621916 | no change | no change | -0.46 | 1.01 |
| PAPOLG (GeneID 64895) | SID134314554 | no change | no change | -0.36 | -0.86 |
| SCAF1 (GeneID 58506) | SID135625059 | no change | no change | -0.22 | 0.44 |
| ACP5 (GeneID 54) | SID152151582 | no change | no change | -0.54 | 1.41 |
| GPR26 (GeneID 2849) | SID134311003 | no change | no change | -1.7 | 2 |
| MLF2 (GeneID 8079) | SID152152213 | no change | no change | 0.02 | 0.46 |
| EIF3C (GeneID 8663) | SID152155689 | no change | no change | -3.51 | -1.15 |
| KRTAP10-4 (GeneID 386672) | SID135624996 | no change | no change | 1.37 | 0.9 |
| OR1I1 (GeneID 126370) | SID152156677 | no change | no change | -1.23 | -0.46 |
| HLA-E (GeneID 3133) | SID135622257 | no change | no change | -1.84 | 2.83 |
| LGSN (GeneID 51557) | SID134313303 | no change | no change | -0.04 | 1.06 |
| SPATA19 (GeneID 219938) | SID134321750 | no change | no change | 0.55 | -0.09 |
| UNC93B1 (GeneID 81622) | SID135622534 | no change | no change | -2.04 | 0.66 |
| ODAD4 (GeneID 83538) | SID152156455 | no change | no change | -1.57 | 1.45 |
| CHD2 (GeneID 1106) | SID135621682 | no change | no change | 1.13 | 2.48 |
| EN2 (GeneID 2020) | SID152150682 | no change | no change | -0.07 | 0.22 |
| DKK1 (GeneID 22943) | SID152147076 | no change | no change | 0.83 | -0.72 |
| QDPR (GeneID 5860) | SID152156077 | no change | no change | 0.28 | -0.81 |
| DEFB128 (GeneID 245939) | SID135625248 | no change | no change | -0.13 | -0.94 |
| MPV17 (GeneID 4358) | SID152153029 | no change | no change | -1.79 | 0.94 |
| MRPS22 (GeneID 56945) | SID134317453 | no change | no change | 1.37 | -0.84 |
| GPR153 (GeneID 387509) | SID135624678 | no change | no change | -2.37 | 2.07 |
| FLT4 (GeneID 2324) | SID152148537 | no change | no change | -0.84 | 1.07 |
| MYH1 (GeneID 4619) | SID152147967 | no change | no change | 0.7 | 0.83 |
| TDRP (GeneID 157695) | SID152153398 | no change (active) | CA2 (caspase activation) | -1.5 | 5.15 |
| FGL2 (GeneID 10875) | SID152151694 | no change | no change | 1.15 | -0.16 |
| CCDC140 (GeneID 151278) | SID134320162 | no change | no change | 1.34 | -0.46 |
| PGR (GeneID 5241) | SID135620677 | no change | no change | -0.07 | -0.54 |
| CYP1B1 (GeneID 1545) | SID134313163 | no change | no change | -3.31 | 1.74 |
| SPACA4 (GeneID 171169) | SID135622947 | no change | no change | -0.62 | -0.23 |
| MAFK (GeneID 7975) | SID152148619 | no change | no change | -0.56 | -0.6 |
| RPL23AP82 (GeneID 284942) | SID135625044 | RV2 (reduced viability) (active) | no change | -4.53 | -0.42 |
| PCDHB3 (GeneID 56132) | SID134317513 | no change | no change | -0.14 | 0.01 |
| PCNP (GeneID 57092) | SID134323991 | no change | no change | 0.93 | 0.34 |
| XYLT1 (GeneID 64131) | SID152151420 | no change | no change | 0 | 3.84 |
| WDCP (GeneID 80304) | SID134318719 | no change | no change | 0.48 | 0.24 |
| HTR3A (GeneID 3359) | SID134311622 | no change | no change | -0.08 | -0.1 |
| PGAP3 (GeneID 93210) | SID134321813 | no change | no change | 1.16 | 1.55 |
| LINC01559 (GeneID 283422) | SID134322744 | no change | no change | -0.01 | 1.86 |
| ISCA1 (GeneID 81689) | SID152155221 | no change | no change | -0.29 | -0.76 |
| SETBP1 (GeneID 26040) | SID134318126 | no change | no change | -0.59 | -0.88 |
| MMP15 (GeneID 4324) | SID134311381 | no change | no change | -1.23 | -0.87 |
| CD300A (GeneID 11314) | SID135622399 | no change | no change | 0.91 | 0.19 |
| KRTAP12-1 (GeneID 353332) | SID134322676 | no change | no change | -0.3 | 0.64 |
| SH2D4B (GeneID 387694) | SID135625076 | no change | no change | -0.52 | -0.72 |
| RPAP1 (GeneID 26015) | SID134321268 | no change | no change | -0.07 | 1.56 |
| TFB2M (GeneID 64216) | SID135622660 | no change | no change | 0.99 | -0.92 |
| SEMA4A (GeneID 64218) | SID134319715 | no change | no change | 0.29 | -0.04 |
| EXOC3L2 (GeneID 90332) | SID134321716 | no change | no change | -0.35 | 1.9 |
| FADS1 (GeneID 3992) | SID152149061 | no change (active) | CA2 (caspase activation) | 0.1 | 5.26 |
| DTWD1 (GeneID 56986) | SID152155467 | no change | no change | -0.16 | -0.64 |
| TVP23C (GeneID 201158) | SID135623121 | no change (active) | CA1 (caspase activation) | -1.04 | 7.3 |
| PIGV (GeneID 55650) | SID134319569 | no change | no change | -0.85 | 1.66 |

Quoted from the entries so far (10 entries):
| gene knocked down | PubChem SID | viability hit class | caspase hit class | viability robust z-score | caspase robust z-score |
| --- | --- | --- | --- | --- | --- |
| CFAP20DC (GeneID 200844) | SID152154673 | no change | no change | 1.46 | -0.45 |
| CMTM2 (GeneID 146225) | SID134315245 | no change | no change | 0.22 | -0.54 |
| GLYATL2 (GeneID 219970) | SID135621916 | no change | no change | -0.46 | 1.01 |
| PAPOLG (GeneID 64895) | SID134314554 | no change | no change | -0.36 | -0.86 |
| SCAF1 (GeneID 58506) | SID135625059 | no change | no change | -0.22 | 0.44 |
| ACP5 (GeneID 54) | SID152151582 | no change | no change | -0.54 | 1.41 |
| GPR26 (GeneID 2849) | SID134311003 | no change | no change | -1.7 | 2 |
| MLF2 (GeneID 8079) | SID152152213 | no change | no change | 0.02 | 0.46 |
| EIF3C (GeneID 8663) | SID152155689 | no change | no change | -3.51 | -1.15 |
| KRTAP10-4 (GeneID 386672) | SID135624996 | no change | no change | 1.37 | 0.9 |
